PubChem BioAssay AID1259308, NCATS – 2017
Shown is one part, drawn at random, of about 59,000 deposited reagents. About 1,510 of them (2.6%) were called active. 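Calls use total luciferase alone and ignore viability, so some active siRNAs may act by altering cell number.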 Not all columns of the deposit are shown.

Screen: 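Genes whose loss raises luciferase production in HEK293 cells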 (primary screen)
Cell system: human HEK293 embryonic kidney cells stably expressing firefly luciferase (HEK-CMV-Luc2-Hygro)
Reagents: single siRNA against human genes, 0.8 pmol siRNA per well
Time to read-out: 72 h
Measurement: 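Luciferase light (ONE-Glo) measured on one replicate plate set and viability (CellTiter-Glo) on the other, scaled to a negative control siRNA, with robust z-scores and luciferase per cell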
Reading the numbers: total luciferase, z-score: higher = more reporter protein produced
Hit rule: 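Active when the median/MAD z-score for overall luciferase is greater than 3; a gene was taken forward for validation with new siRNAs if at least two of its three siRNAs passed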
Calls: active = raised luciferase; inactive = no rise

no.	gene	PubChem SID	total luciferase, z-score	activity call
1	GGA2	SID160730823	0.219	inactive
2	GGA2	SID160735356	1.37	inactive
3	GGA2	SID160735357	-0.798	inactive
4	KIF2B (kinesin family member 2B)	SID160752503	-1.07	inactive
5	KIF2B (kinesin family member 2B)	SID160752504	2.39	inactive
6	KIF2B (kinesin family member 2B)	SID160752505	-1.59	inactive
7	LINC02843 (long independently transcribed non-coding RNA 2843)	SID160763821	-0.186	inactive
8	LINC02843 (long independently transcribed non-coding RNA 2843)	SID160763822	3.95	active
9	LINC02843 (long independently transcribed non-coding RNA 2843)	SID160763823	0.671	inactive
10	SYNPO (synaptopodin)	SID160731089	0.719	inactive
11	SYNPO (synaptopodin)	SID160731100	2.02	inactive
12	SYNPO (synaptopodin)	SID160731108	0.0115	inactive
13	USP5 (ubiquitin specific peptidase 5)	SID160719606	2.02	inactive
14	USP5 (ubiquitin specific peptidase 5)	SID160719607	0.491	inactive
15	USP5 (ubiquitin specific peptidase 5)	SID160719608	4.34	active
16	SPATA18 (spermatogenesis associated 18)	SID160757181	2.84	inactive
17	SPATA18 (spermatogenesis associated 18)	SID160757182	-0.00757	inactive
18	SPATA18 (spermatogenesis associated 18)	SID160757183	1.71	inactive
19	CHD8 (chromodomain helicase DNA binding protein 8)	SID160746561	-0.174	inactive
20	CHD8 (chromodomain helicase DNA binding protein 8)	SID160746562	0.383	inactive
21	CHD8 (chromodomain helicase DNA binding protein 8)	SID160746563	3.67	active
22	SPESP1 (sperm equatorial segment protein 1)	SID160762025	-0.287	inactive
23	SPESP1 (sperm equatorial segment protein 1)	SID160762026	-1.71	inactive
24	SPESP1 (sperm equatorial segment protein 1)	SID160762027	-0.182	inactive

Continued, starting with the last 2 of the part before.
no.	gene	PubChem SID	total luciferase, z-score	activity call
23	SPESP1 (sperm equatorial segment protein 1)	SID160762026	-1.71	inactive
24	SPESP1 (sperm equatorial segment protein 1)	SID160762027	-0.182	inactive
25	SCARA3 (scavenger receptor class A member 3)	SID160740807	-0.638	inactive
26	SCARA3 (scavenger receptor class A member 3)	SID160740808	-0.617	inactive
27	SCARA3 (scavenger receptor class A member 3)	SID160740809	-0.307	inactive
28	SLC15A2	SID160716951	0.0918	inactive
29	SLC15A2	SID160716952	0.0565	inactive
30	SLC15A2	SID160716953	-0.682	inactive
31	PARD6B (par-6 family cell polarity regulator beta)	SID160752433	0.681	inactive
32	PARD6B (par-6 family cell polarity regulator beta)	SID160752434	0.325	inactive
33	PARD6B (par-6 family cell polarity regulator beta)	SID160752435	-2.11	inactive
34	UPB1 (beta-ureidopropionase 1)	SID160741283	0.25	inactive
35	UPB1 (beta-ureidopropionase 1)	SID160741284	0.299	inactive
36	UPB1 (beta-ureidopropionase 1)	SID160741285	0.0175	inactive
37	RSPH9 (radial spoke head component 9)	SID160761685	0.236	inactive
38	RSPH9 (radial spoke head component 9)	SID160761686	-0.181	inactive
39	RSPH9 (radial spoke head component 9)	SID160761687	-0.339	inactive
40	NTNG2 (netrin G2)	SID160752471	-2.41	inactive
41	NTNG2 (netrin G2)	SID160752472	-0.352	inactive
42	NTNG2 (netrin G2)	SID160752473	1.12	inactive
43	DPYSL2 (dihydropyrimidinase like 2)	SID160756125	-0.0899	inactive
44	DPYSL2 (dihydropyrimidinase like 2)	SID160756137	0.94	inactive
45	DPYSL2 (dihydropyrimidinase like 2)	SID160756147	0.0191	inactive
46	NKX2-1 (NK2 homeobox 1)	SID160718088	-0.0598	inactive
47	NKX2-1 (NK2 homeobox 1)	SID160718089	-0.671	inactive
48	NKX2-1 (NK2 homeobox 1)	SID160731836	1.37	inactive
49	SOCS5 (suppressor of cytokine signaling 5)	SID160722726	-0.608	inactive
50	SOCS5 (suppressor of cytokine signaling 5)	SID160722727	0.144	inactive
51	SOCS5 (suppressor of cytokine signaling 5)	SID160722728	0.418	inactive
52	RPS6KA3 (ribosomal protein S6 kinase A3)	SID160716153	-0.896	inactive
53	RPS6KA3 (ribosomal protein S6 kinase A3)	SID160716155	-0.194	inactive
54	RPS6KA3 (ribosomal protein S6 kinase A3)	SID160716156	-1.06	inactive
55	C1orf159 (chromosome 1 open reading frame 159)	SID160742687	0.381	inactive
56	C1orf159 (chromosome 1 open reading frame 159)	SID160742688	1.12	inactive
57	C1orf159 (chromosome 1 open reading frame 159)	SID160742689	-0.31	inactive
